Binding data for 3 molecules are collected here from publication doi:10.1101/2024.02.06.579158.

The chains behind the UniProt entries cited, without tags or fusion partners.
UniProt Q9R1K9: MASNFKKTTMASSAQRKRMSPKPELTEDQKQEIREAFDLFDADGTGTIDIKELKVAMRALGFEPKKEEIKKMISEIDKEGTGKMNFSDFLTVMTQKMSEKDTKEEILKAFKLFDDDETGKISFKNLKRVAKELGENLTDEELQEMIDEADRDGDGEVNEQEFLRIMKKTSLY

These are yes or no findings as the source states them, for the method shown. In cells and extracts the contact can be indirect. Some binding calls cover weakened binding; strength is not graded here. For part of these data: Where a sequence is shown, tags or fusion partners need not be part of it.

Assay in all cases: co-IP
For test [1], the target named is T1, FLAG-tagged mouse APLF, full length, stably expressed in E14 ESCs (mouse) (UniProt Q9D842).
T1 sequence: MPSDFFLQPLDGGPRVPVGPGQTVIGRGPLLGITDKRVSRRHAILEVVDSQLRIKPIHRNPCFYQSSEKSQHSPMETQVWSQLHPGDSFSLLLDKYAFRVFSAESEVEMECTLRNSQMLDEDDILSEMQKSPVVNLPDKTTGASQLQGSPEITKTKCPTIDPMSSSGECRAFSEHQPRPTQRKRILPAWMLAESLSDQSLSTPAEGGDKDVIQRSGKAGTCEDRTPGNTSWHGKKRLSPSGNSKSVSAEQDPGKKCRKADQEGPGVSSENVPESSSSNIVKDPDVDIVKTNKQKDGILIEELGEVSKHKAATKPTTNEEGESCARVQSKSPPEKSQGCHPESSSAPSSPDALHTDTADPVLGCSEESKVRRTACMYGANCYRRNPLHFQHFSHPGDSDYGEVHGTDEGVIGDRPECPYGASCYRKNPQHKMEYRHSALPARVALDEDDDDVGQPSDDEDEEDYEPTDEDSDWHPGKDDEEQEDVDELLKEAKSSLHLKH

Test [2] concerns the target T2, endogenous mouse APLF (mouse (endogenous in E14 ESCs)) (UniProt Q9D842).
T2 sequence: T1 sequence

The target in test [3] is T3, Polo-like Kinase 4 (PLK4) (mouse (endogenous in E14 ESCs)) (UniProt Q64702).
T3 sequence: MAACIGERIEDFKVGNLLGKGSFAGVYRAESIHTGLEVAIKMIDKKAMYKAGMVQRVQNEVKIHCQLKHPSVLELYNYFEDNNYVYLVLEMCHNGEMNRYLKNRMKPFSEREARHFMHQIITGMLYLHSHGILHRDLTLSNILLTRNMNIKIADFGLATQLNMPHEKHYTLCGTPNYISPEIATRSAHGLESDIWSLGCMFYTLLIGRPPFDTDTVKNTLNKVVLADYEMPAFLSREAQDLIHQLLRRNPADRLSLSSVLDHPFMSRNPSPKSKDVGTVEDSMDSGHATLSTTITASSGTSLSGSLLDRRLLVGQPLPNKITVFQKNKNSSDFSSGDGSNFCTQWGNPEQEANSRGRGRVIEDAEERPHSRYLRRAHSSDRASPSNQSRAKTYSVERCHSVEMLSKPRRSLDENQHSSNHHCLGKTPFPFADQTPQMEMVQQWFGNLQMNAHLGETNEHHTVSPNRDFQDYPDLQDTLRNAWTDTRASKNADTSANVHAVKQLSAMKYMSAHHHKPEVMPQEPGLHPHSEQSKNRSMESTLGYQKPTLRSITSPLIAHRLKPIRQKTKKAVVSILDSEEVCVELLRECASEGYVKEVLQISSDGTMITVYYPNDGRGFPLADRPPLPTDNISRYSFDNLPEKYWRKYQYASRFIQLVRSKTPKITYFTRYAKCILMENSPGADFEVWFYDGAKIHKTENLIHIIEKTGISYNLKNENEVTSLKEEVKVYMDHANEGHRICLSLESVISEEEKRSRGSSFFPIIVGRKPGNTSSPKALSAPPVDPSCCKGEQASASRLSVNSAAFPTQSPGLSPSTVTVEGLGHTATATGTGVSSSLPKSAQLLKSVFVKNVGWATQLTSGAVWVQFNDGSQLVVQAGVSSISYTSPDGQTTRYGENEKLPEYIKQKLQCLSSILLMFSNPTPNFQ

Turning to “Centrin 2 (CETN2) (from UniProt Q9R1K9 1-172)”, the binding entry in test [1] was “binds”.

B1: Polo-like Kinase 4 (PLK4) (enzyme, UniProt Q64702 1-925)
chain: T3 sequence
B1: the binding result in test [2] was “binds”.

B2: endogenous mouse APLF (protein, UniProt Q9D842 1-499)
chain: T1 sequence
On to B2, for which the binding entry in test [3] is recorded as “binds”.
